# Test results published in patent US20080009416A1, “THIAZOLIUM COMPOUNDS AND USES THEREOF” (Mycosol, Inc., priority 2004, published 2008).
# Some results were stated once for a whole list of compounds, not compound by compound.
# System: ICAM1
# Settings: read-out: anti-ICAM1 activity IC50; HUVE cells, compound 1 hour, stimulant (TNF-alpha, IL-1 or LPS) 1 hour, human WBCs 4 hours
row,SMILES,IC50
1,C[n+]1c(-c2ccc(-c3ccccc3)cc2)csc1C=Cc1ccc(N2CCCC2)cc1,< 80 nM
2,CCN(CC)c1ccc(/C=C/c2scc(-c3ccc(OC)cc3)[n+]2C)cc1.[I-] [Formula III],< 80 nM
3,"CC(C)c1ccc(C(C)C)c(-c2csc(/C=C/c3ccc(N(C)C)cc3)[n+]2C)c1.[I-] [Formula IV, E-2-(N,N′-dimethylaminostyryl)-3-methyl-4-(2,5-diisopropylphenyl)thiazolium iodide]",< 80 nM
4,"Cc1cc(-c2csc(/C=C/c3ccc(N(C)C)cc3)[n+]2C)c(C)c(C)c1C.[I-] [Formula V, E-2-(N,N′-dimethylaminostyryl)-3-methyl-4-(2,3,4,5-tetramethylphenyl)thiazolium iodide]",< 80 nM
